Data published in patent US7268124B2, “Geranylgeranyl pyrophosphate synthase inhibitors” (University of Iowa Research Foundation, priority 2004, dated 2007).
Some entries share one result that the patent states for a list of compounds. At least one compound was matched to its structure with a doubt left.

Target: GGPTase
Assay: GGPTase enzyme inhibition
Assay type: biochemical
Settings: mammalian enzyme; also no inhibition at 1 to 10 nanomolar; read-out: GGPTase: not inhibited at concentrations as high as

SMILES: CC(C)=CCC/C(C)=C/CC(C/C=C(\C)CCC=C(C)C)(P(=O)(OCOC(=O)C(C)(C)C)OCOC(=O)C(C)(C)C)P(=O)(OCOC(=O)C(C)(C)C)OCOC(=O)C(C)(C)C [Compound 13, tetrapivaloyloxymethyl (E)-1,1-bis(4,8-dimethyl-nona-3,7-dienyl)-1,1-bisphosphonate]
- IC50: > 50 µM
